Patent publication US20220089531A1, “NEW […] ACID DERIVATIVES, PHARMACEUTICALLY ACCEPTABLE SALT THEREOF, COMPOSITION THEREOF AND METHOD OF USE THEREOF” (THE GOVERNING COUNCIL OF THE UNIVERSITY OF TORONTO, priority 2018, published 2022)
Some of these results come from one statement about several compounds together.

Test system: MV-4-11
Experiment: Cell Titer-Blue cell viability assay, MV-4-11 (AML)
Type: cell-based
Conditions: acute myeloid leukemia cells MV4;11, versus AC-3-19
Procedure: Anti-cancer efficacy of exemplary compounds of this application was assessed in vitro in different cancer cell lines. Cell viability was examined following treatment at various concentration of inhibitor (0.097656-50 μM) using a cell Titer-Blue cell viability assay. 1×10^4 cells/well were plated in 96-well assay plates in culture medium. All cells were grown in DMEM, IMDM and RPMI-1640 supplemented with 10% FBS. After 24 hrs, test compounds and vehicle controls were added to appropriate wells so the final volume was 100 μl in each well. The cells were cultured for the desired test exposure period (72 hrs) at 37° C. and 5% CO2. The assay plates were removed from 37° C. incubator and 20 μl/well of CellTiter-Blue® Reagent was added. The plates were incubated using standard cell culture conditions for 1-4 hours and the plates were shaken for 10 seconds and fluorescence recorded at 560/590 nm.
Compound I and II were tested for their efficacy against selected chronic myelogenous leukemia, acute myeloid leukemia and healthy human lung cell lines using the protocol stated above.

| SMILES | fold greater potency than AC-3-19 in MV4;11 |
| --- | --- |
| CC(C)(C)c1cc(CN(C(=O)CN(Cc2ccc(Cl)cc2)S(=O)(=O)c2c(F)c(F)c(F)c(F)c2F)c2ccc(C(=O)O)cc2)cc(C2CC2)c1 [Compound II] | 6-8 fold |
| CC(C)(C)c1cc(CN(C(=O)CN(Cc2ccc(Cl)cc2)S(=O)(=O)c2c(F)c(F)c(F)c(F)c2F)c2ccc(C(=O)O)c(O)c2)cc(C2CC2)c1 [Compound I] | 6-8 fold |
